According to PubChem BioAssay AID504834 (National Center for Advancing Translational Sciences (NCATS), 2011):
The campaign covered roughly 320,000 compounds. About 22,000 (6.9%) were called active. The inconclusive results got no clear call from the source; some entries with a clear call stand among them for comparison. The call rests on the fitted dose curve; in most records, active means well fitted inhibition curve with a large enough effect; inconclusive means small, poorly fitted or top-dose-only effect, or another doubt; inactive means no such curve, though single readings can be large or run the other way. Where the call is inconclusive, the potency comes from a doubtful curve fit.
On the % scale 0 is the no-effect control and ±100 the full control effect; potency means the concentration at half of the fitted maximal effect.

Assay: Primary qHTS for delayed death inhibitors of the malarial parasite plastid, 96 hour incubation
Conditions: P. falciparum luciferase reporter growth; series mostly up to 28.7 µM; activity change, negative = inhibition: at the top concentration
How it was run: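 Two parasite generations (96 h, 37 C, 5% CO2) of compound exposure in infected erythrocytes (0.05% parasitemia, 2% hematocrit). Luciferase-reporter P. falciparum; decreased luminescence indicates inhibited growth, aimed at apicoplast-acting delayed death.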
With `CC(C)n1c(O)c(N=NC(=O)C2COc3ccccc3O2)c2ccccc21` (stereo not given) the “activity change, negative = inhibition” value was inactive: 139%.
In the case of `CCOc1ccc2nc(N(CCN(CC)CC)C(=O)c3cccc([N+](=O)[O-])c3)sc2c1`, the “activity change, negative = inhibition” value is reported as inactive: -7.54%.
For `CC(C)OC(=O)CSc1nnc(-c2ccc(O)cc2)n1Cc1ccccc1`, the activity change, negative = inhibition was inactive: 3.66% [at 5.75 µM].
With `C=CCOc1nc2c(c(=O)n(C)c(=O)n2C)n1Cc1ccc(Cl)cc1` the Potency was inconclusive: 16.5 µM [inhibitor, partial curve, poor fit].
With `C/C(=N\NC(=O)c1c(C)nc2ccccn12)c1cccc([N+](=O)[O-])c1` the “activity change, negative = inhibition” value was inactive: -11.1%.
For `COc1ccc(S(=O)(=O)N(CC(=O)NCCCN(C)C)c2ccc(C)cc2)cc1OC`, the Potency was inconclusive: 18.5 µM [inhibitor, single point].
In the case of `Cc1cccc(C)c1N1CCc2cn[nH]c21`, the Potency is reported as inconclusive: 4.15 µM [inhibitor, partial curve, poor fit].
For `CCOC(=O)c1c(CN2CCC(C)CC2)n(C)c2cc(Br)c(OC)cc12`, the Potency was inconclusive: 6.57 µM [inhibitor, partial curve].
In the case of `CC(=O)Oc1ccccc1C(=O)N1CCN(S(=O)(=O)c2ccc3ccccc3c2)CC1`, the Potency is reported as inconclusive: 4.65 µM [inhibitor, partial curve].
With `CNS(=O)(=O)c1cc(Nc2ncnc3sccc23)ccc1C` the “activity change, negative = inhibition” value was inactive: -16.4%.
With `O=[N+]([O-])c1ccc(Sc2cccc3cccnc23)c2cccnc12` the Potency was inconclusive: 18.5 µM [inhibitor, single point].
In the case of `COc1ccc(N(CC(=O)Nc2ccccc2F)S(=O)(=O)c2ccc(OC)c(OC)c2)cc1`, the Potency is reported as inconclusive: 18.5 µM [inhibitor, single point].
In the case of `Cn1c(CN2CCOCC2)nnc1SCC(=O)Nc1cccc(C(F)(F)F)c1`, the “activity change, negative = inhibition” value is reported as inactive: 33.8%.
In the case of `CCC(C)N1C(=O)/C(=C\c2cnc(N(C)C)nc2)C(=O)NC1=S` (stereo not given), the “activity change, negative = inhibition” value is reported as inactive: -27.5%.
In the case of `COC(=O)C1=C(NC(=O)c2ccccc2[N+](=O)[O-])CCS1`, the “activity change, negative = inhibition” value is reported as inactive: -7.83%.
In the case of `CCOC(=O)c1ccc(Oc2c(C)oc3c(CN4CCN(C)CC4)c(O)ccc3c2=O)cc1`, the Potency is reported as inconclusive: 13.1 µM [inhibitor, single point].
For `O=[N+]([O-])c1cccc2c(S(=O)(=O)N3CCOCC3)cccc12`, the Potency was inconclusive: 18.5 µM [inhibitor, single point].
For `Cc1ccc(-n2c(SCc3ccc([N+](=O)[O-])cc3)nc3ccccc3c2=O)cc1`, the Potency was inconclusive: 10.4 µM [inhibitor, single point].
For `Cc1ccc(C)c(Nc2c(F)c(F)c(F)c(F)c2C(=O)O)c1`, the Potency was inconclusive: 18.5 µM [inhibitor, single point].
With `CCC(=O)Nc1ccc(N2CCN(Cc3ccccc3F)CC2)cc1` the Potency was active: 9.28 µM.
With `O=C(CCC(=O)NNC(=O)Nc1cccc(Cl)c1)NCc1ccccc1` the “activity change, negative = inhibition” value was inactive: 0%.
In the case of `N#Cc1ccccc1S(=O)(=O)N1CCN(CC(=O)NC(=O)NC2CCCCC2)CC1`, the Potency is reported as inconclusive: 10.4 µM [inhibitor, single point].
With `Cc1cc(C)n(NC(=S)NC2CCCCC2)c(=O)c1C#N` the “activity change, negative = inhibition” value was inactive: 46.7%.
With `CC1CCCC/C1=N/Nc1ccc([N+](=O)[O-])cc1[N+](=O)[O-]` (stereo not given) the “activity change, negative = inhibition” value was inactive: 237%.
For `COc1ccc(OC)c(NC(=O)CSc2nnc(CNC(=O)c3cccs3)o2)c1`, the Potency was inconclusive: 0.828 µM [inhibitor, partial curve, poor fit].
With `CCCCC1C2C(=O)N(c3ccccc3)C(=O)C2ON1c1ccccc1` (stereo not given) the “activity change, negative = inhibition” value was inactive: -30.7%.
In the case of `COc1ccc(S(=O)(=O)N2CCN(CC(=O)c3[nH]c(C)c(C(C)=O)c3C)CC2)cc1OC`, the Potency is reported as inconclusive: 9.28 µM [inhibitor, partial curve].
In the case of `Cc1ccn2cc(-c3cccc(S(=O)(=O)N4CCCCC4)c3)nc2c1`, the Potency is reported as inconclusive: 18.5 µM [inhibitor, single point].
In the case of `CCOc1ccc(NC(=O)c2ccccc2NC(=O)c2cccnc2)cc1`, the Potency is reported as inconclusive: 18.5 µM [inhibitor, single point].
For `Cc1ccn2cc(-c3ccc(S(=O)(=O)N4CCOCC4)cc3)nc2c1`, the “activity change, negative = inhibition” value was inactive: 20%.
With `COc1ccccc1NC(=O)C1C2CCCCC21` (stereo not given) the Potency was inconclusive: 5.22 µM [inhibitor, partial curve].
In the case of `Cc1nc2ccccc2c(C)c1CC(=O)N(CC(C)C)c1c(N)n(Cc2ccccc2)c(=O)[nH]c1=O`, the Potency is reported as active: 11.7 µM.
For `Cc1cccc(C)c1NC(=S)N(CCc1ccncc1)C(C)C`, the Potency was inconclusive: 5.22 µM [inhibitor, partial curve, poor fit].
With `N#CCNC(=O)c1nn2c(C(F)(F)F)cc(-c3ccccc3)nc2c1Br` the Potency was inconclusive: 4.65 µM [inhibitor, partial curve].
In the case of `COC(=O)c1cn(C)c2ccc(S(=O)(=O)N3CC(C)CC(C)C3)cc2c1=O` (stereo not given), the Potency is reported as active: 3.7 µM.
In the case of `COc1cccc2sc3ccc(NCc4ccc5c(c4)OCO5)cc3c(=O)c12`, the Potency is reported as inconclusive: 18.5 µM [inhibitor, single point].
For `c1ccc2c(Nc3ccc(N4CCOCC4)cc3)nc(N3CCOCC3)nc2c1`, the “activity change, negative = inhibition” value was inactive: -23.9%.
For `CCOC(=O)c1c(C)[nH]c(C(=O)Cn2nnc(-c3ccc(Cl)cc3)n2)c1C`, the Potency was inconclusive: 10.4 µM [inhibitor, single point].
For `COc1cccc(NC(=O)c2ccc(NCCCN3CCC(C)CC3)c([N+](=O)[O-])c2)c1`, the Potency was inconclusive: 4.65 µM [inhibitor, partial curve].
For `CCOc1ccc(Cc2noc3c2C(=O)CCC3)cc1OCC`, the “activity change, negative = inhibition” value was inactive: 0.703%.
For `O=C(CN(Cc1ccco1)C(=O)CNS(=O)(=O)c1ccc(Cl)cc1)NCc1ccco1`, the Potency was inconclusive: 11.7 µM [inhibitor, single point].
In the case of `COc1ccc(OC)c(NC(=O)CN2C(=O)NC3(CCOc4ccccc43)C2=O)c1` (stereo not given), the Potency is reported as inconclusive: 18.5 µM [inhibitor, single point].
For `CCOc1ccc2oc(C(=O)OCC(=O)N3CC(C)OC(C)C3)c(C)c2c1` (stereo not given), the Potency was inconclusive: 0.415 µM [inhibitor, full curve, poor fit].
In the case of `CCOC(=O)Nc1ccc2c(c1)N(C(=O)N1CCN(C)CC1)c1ccccc1S2`, the Potency is reported as inconclusive: 10.4 µM [inhibitor, single point].
In the case of `COC(=O)CNC(c1ccccc1)c1cc(C)ccc1NS(=O)(=O)c1ccc(C)cc1` (stereo not given), the Potency is reported as active: 13.1 µM.
With `O=S(=O)(c1ccccc1)N(CC(O)COc1ccccc1)c1ccccc1` (stereo not given) the “activity change, negative = inhibition” value was inactive: -0.529%.
With `CC1CCN(C(=O)CSc2nnc(CNC(=O)c3ccc(S(=O)(=O)N(C)C)cc3)o2)CC1` the “activity change, negative = inhibition” value was inactive: -2.92%.
In the case of `Cc1cnc(NC(=O)c2c(Cl)cnn2C)s1`, the “activity change, negative = inhibition” value is reported as inactive: 9.85%.
In the case of `Cc1ccc(CNC(=O)CCc2nc(-c3cccs3)no2)cc1`, the Potency is reported as inconclusive: 14.7 µM [inhibitor, partial curve, poor fit].
With `Cc1ccccc1C(=O)N1CCC(C(=O)N2CCCc3ccccc32)CC1` the “activity change, negative = inhibition” value was inactive: -16.2%.
In the case of `O=C(CN1CCN(C(=O)c2ccco2)CC1)Nc1ccc(Br)cc1`, the “activity change, negative = inhibition” value is reported as inactive: 33.1%.
For `COC(=O)C1=C(C)N(Cc2ccccc2)C(=O)/C1=C\c1ccco1`, the “activity change, negative = inhibition” value was inactive: -6.64%.
In the case of `Cc1ccc(OCC(=O)Nc2cc(C)on2)c([N+](=O)[O-])n1`, the “activity change, negative = inhibition” value is reported as inactive: 32.6%.
For `O=S(=O)(Nc1ccc2c(c1)OCCO2)c1cccc(F)c1`, the “activity change, negative = inhibition” value was inactive: 87.6%.
In the case of `O=C(CN(c1ccccc1)S(=O)(=O)c1ccc(Cl)cc1)Nc1cccnc1`, the “activity change, negative = inhibition” value is reported as inactive: 43.9%.
With `CCC1(C)N([O-])C(C)=C(c2ccccc2)[N+]1=O` (stereo not given) the Potency was active: 0.0928 µM.
In the case of `COc1ccc(CCCC(=O)NCc2ccccc2)cc1C`, the Potency is reported as inconclusive: 18.5 µM [inhibitor, single point].
With `CC1=Nc2nc(N3CCCCC3)c(C#N)c3c4c(nc(c23)N1)N(c1ccc(C(C)C)cc1)C(=O)C4` the Potency was active: 1.17 µM.
With `CC1CCCC(NC(=O)CNC(=O)c2cccs2)C1C` (stereo not given) the “activity change, negative = inhibition” value was inactive: 25.7%.
For `O=C(NCCC1=CCCCC1)C(=O)NCC(c1ccco1)N1CCN(c2ccc(F)cc2)CC1` (stereo not given), the Potency was inconclusive: 11.7 µM [inhibitor, single point].
For `CCOC(=O)NC(c1cccc(Cl)c1)C1CCCCCC1=O` (stereo not given), the “activity change, negative = inhibition” value was inactive: 67.6%.
For `Nc1nc2n(n1)C1(CCCCC1)C1=C(CCCC1)N2`, the Potency was active: 10.4 µM.
In the case of `Cc1cc(C)cc(C(=O)NCC(=O)OCN2C(=O)c3ccccc3C2=O)c1`, the “activity change, negative = inhibition” value is reported as inactive: -23.2%.
For `Cc1cc(=O)[nH]c(SCC(=O)Nc2ccc3c(c2)OCCO3)n1`, the Potency was inconclusive: 0.0033 µM [inhibitor, full curve, poor fit].
In the case of `COc1ccc(/C=C2/Sc3ccc(C(=O)NCCCN4CCOCC4)cc3NC2=O)cc1OC`, the Potency is reported as inconclusive: 14.7 µM [inhibitor, partial curve, poor fit].
For `CN(C)c1nc(N(C)C)n(C(=O)c2cccs2)n1`, the Potency was inconclusive: 3.7 µM [inhibitor, partial curve, poor fit].
For `Cn1cc(C2N3CC4(C)CN2CC(C)(C3)C4=O)c2ccccc21` (stereo not given), the “activity change, negative = inhibition” value was inactive: 21.1%.
For `COc1ccc2c(C(=O)CN3CCN(CCO)CC3)c[nH]c2c1`, the Potency was inconclusive: 0.415 µM [inhibitor, partial curve, poor fit].
In the case of `COc1ccc(C2N(C(=O)N(C)C)CCN2S(=O)(=O)c2ccc(OC)cc2)cc1` (stereo not given), the “activity change, negative = inhibition” value is reported as inactive: 26.9%.
For `O=C(CSc1ccc(Cl)cc1)Nc1nnc(-c2cccc([N+](=O)[O-])c2)s1`, the “activity change, negative = inhibition” value was inactive: -22.8%.
In the case of `CCSc1ncc(CO)c(N)n1`, the Potency is reported as inconclusive: 1.65 µM [inhibitor, partial curve].
For `COc1ccccc1NS(=O)(=O)c1ccc(O)c(C(=O)OCc2cccc([N+](=O)[O-])c2)c1`, the “activity change, negative = inhibition” value was inactive: 6.37%.
In the case of `Cn1c(C(O)c2ccc3c(c2)OCO3)nc2ccccc21` (stereo not given), the “activity change, negative = inhibition” value is reported as inactive: 105%.
For `S=c1[nH]c(-c2ccccc2)cn1/N=C/c1ccc(Br)cc1`, the Potency was inconclusive: 3.29 µM [inhibitor, partial curve, poor fit].
For `Nc1c(C(=O)OCC2CCCO2)c2nc3ccccc3nc2n1Cc1cccs1` (stereo not given), the Potency was active: 3.7 µM.
